{"source": "PubChem BioAssay AID624297", "about": "(National Center for Advancing Translational Sciences (NCATS), 2012)", "note": "Several values for one entry are separate records, joined by “and”; a condition that tells them apart may be missing. Equal values may be shown once. The whole screen tested about 340,000 compounds, of which about 6,200 (1.8%) were called active. Inconclusive means that the source gave no clear call. Such entries were picked first, then a sample of the others. Calls follow the shape of the dose curve; as a rule, active = well fitted activation curve with a large enough effect; inconclusive = small, poorly fitted or top-dose-only effect; inactive = no such curve, though single readings can be large or run the other way. Potencies of inconclusive entries are doubtful fits and often do not repeat. Potency is read from the fitted curve at half-maximal effect.", "data": [{"assay": "A quantitative high throughput screen for small molecules that induce DNA re-replication in SW480 colon adenocarcinoma cells; also: nearly all actives have a fitted effect of over 55% in size; as to re-replication activation: % of control where 0% means no effect.", "settings": "Hoechst DNA content imaging, 48 h; re-replication activation: at 46.1 µM (top of the series) unless noted", "summary_of_the_method": "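SW480 cells exposed to compounds for 48 hr at 37 C, 5% CO2, then Hoechst-stained 40 min. Nuclear DNA content imaged by fluorescence scanning (405 nm excitation, 500-530 nm emission); re-replication scored as increased high-intensity nuclei.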", "values": [{"smiles": "O=C(Nc1cccc2c1CCCC2)c1ccc(Cl)c([N+](=O)[O-])c1", "Potency": "inconclusive: 29.1 µM [activator, single point]"}, {"smiles": "CCOC(=O)/C=C/C(=O)OCC(=O)NC(c1ccccc1)c1ccccc1", "Potency": "inconclusive: 8.2 µM [activator, partial curve, poor fit]"}, {"smiles": "O=C1NNC(=O)C2C3C=CC(C4CC34)C12", "note": "(configuration not stated)", "Potency": "inconclusive: 0.092 µM [activator, full curve, poor fit]"}, {"smiles": "CC(/C=N/NC(=O)c1cccnc1)=C\\c1ccco1", "Potency": "inconclusive: 3.66 µM [activator, full curve, poor fit]"}, {"smiles": "C=CCN1C(=O)C(Cc2cccc(C)c2)SC1=Nc1ccc(C(=O)O)cc1", "note": "(configuration not stated)", "Potency": "inactive"}, {"smiles": "O=C1CCN(c2ccccc2)N1", "Potency": "inactive"}, {"smiles": "COc1ccccc1N1CCN(C(=O)CNC(=O)c2cn(-c3ccccc3OC)c(=O)c3ccccc23)CC1", "Potency": "inconclusive: 4.11 µM [activator, full curve, poor fit]"}, {"smiles": "CC(C)(C)c1nnc(NC(=O)c2cc(-c3ccccc3)nc3ccccc23)s1", "Potency": "inactive"}, {"smiles": "CCc1noc(C)c1C(=O)NCCc1ccc(F)cc1", "Potency": "inactive"}, {"smiles": "Cn1nnnc1N=N/C(=N/Nc1ccccc1)c1ccccc1", "Potency": "inconclusive: 0.651 µM [activator, full curve, poor fit]"}, {"smiles": "CCOC(=O)c1c(C)[nH]c(C(=O)CSc2nnnn2-c2ccccc2)c1C", "Potency": "inactive"}, {"smiles": "O=C(NCCCc1ccccc1)C1CCC(=O)N(Cc2ccc(Cl)cc2)C1", "note": "(configuration not stated)", "Potency": "inconclusive: 16.4 µM [activator, partial curve, poor fit]"}, {"smiles": "COc1ccc(-c2csc(NC(=S)NC(=O)c3cccs3)n2)cc1Br", "Potency": "inconclusive: 16.4 µM [activator, partial curve, poor fit]"}, {"smiles": "Cc1ccccc1C(=O)Nc1nnc(-c2ccc(C(C)(C)C)cc2)s1", "Potency": "inconclusive: 29.1 µM [activator, partial curve, poor fit]"}, {"smiles": "CCOC(=O)C1CCN(C(=O)C2CCN(c3ncnc4c3nc3n4CCCCC3)CC2)CC1", "Potency": "inactive"}, {"smiles": "O=C(/C=C/c1ccc(OCc2ccccc2)c(OCc2ccccc2)c1)c1cccnc1", "Potency": "inconclusive: 29.1 µM [activator, single point]"}, {"smiles": "Cc1ccc(N(C(=O)c2ccco2)C(C(=O)NC2CCCC2)c2cccnc2)cc1", "note": "(configuration not stated)", "Potency": "inactive"}, {"smiles": "COc1ccc2oc(=N)c(C(=O)Nc3ccccc3)cc2c1", "Potency": "inactive"}, {"smiles": "COc1ccc(CC(=O)Nc2nc(-c3ccccc3)c(C(C)=O)s2)cc1OC", "Potency": "inconclusive: 29.1 µM [activator, partial curve, poor fit]"}, {"smiles": "CCCCCCCCCC(=O)N1CCN(c2cc3c(cc2F)c(=O)c(C(=O)O)cn3CC)CC1", "Potency": "inconclusive: 29.1 µM [activator, single point]"}, {"smiles": "CCCC[n+]1ccn(-c2nc3ccccc3nc2[N-]S(=O)(=O)c2ccc(Br)cc2)c1", "Potency": "active: 18.4 µM"}, {"smiles": "Nc1ccccc1-c1ccc([N+](=O)[O-])cc1", "Potency": "inconclusive: 32.6 µM [activator, single point]"}, {"smiles": "Cn1c(/C=C/c2ccccc2[N+](=O)[O-])nc2ccccc2c1=O", "Potency": "inconclusive: 23.1 µM [activator, single point]"}, {"smiles": "CCCN1C(=O)/C(=C/C=C2\\N(CC)c3ccccc3C2(C)C)SC1=S", "Potency": "inactive"}, {"smiles": "COc1ccc(NC(=O)c2sc3nc(C)cc(C)c3c2N)c(OC)c1", "Potency": "active: 14.6 µM"}, {"smiles": "N#Cc1cnn2c(C(F)(F)F)cc(-c3ccccc3)nc12", "Potency": "inconclusive: 29.1 µM [activator, single point]"}, {"smiles": "C=CCN(Cc1ccc(Cl)s1)C(=O)c1cc(S(=O)(=O)N2CCOCC2)ccc1F", "Potency": "inactive"}, {"smiles": "Cc1ccc(NP(=O)(Nc2ccc(C)cc2)Nc2ccc(C)cc2)cc1", "Potency": "inconclusive: 0.562 µM [activator, partial curve, poor fit]"}, {"smiles": "O=C(CCn1c(=O)oc2ccccc21)NCc1cccs1", "Potency": "inconclusive: 7.31 µM [activator, partial curve]"}, {"smiles": "COc1ccc(-n2c(SCC#N)nc3c(sc(=S)n3-c3ccccc3)c2=O)c(OC)c1", "Potency": "inconclusive: 29.1 µM [activator, single point]"}, {"smiles": "COC(=O)c1ccc(Oc2cc(C)nc(-n3nc(C)cc3C)n2)cc1", "Potency": "active: 0.82 µM"}, {"smiles": "CCc1cccc2c1NC(=O)C21N2CCCC2C(C(=O)c2ccc3ccccc3c2)C12C(=O)Nc1ccccc12", "note": "(configuration not stated)", "Potency": "inconclusive: 18.4 µM [activator, single point]"}, {"smiles": "C#CCOCCOCCOCCNc1nc(N2CCN(C(=O)Cn3cc(CCO)nn3)CC2)nc(N2CCN(C(=O)[C@H]([C@@H](C)O)n3cc(CCCCN)nn3)CC2)n1", "Potency": "inactive"}, {"smiles": "O=C1CC(NS(=O)(=O)c2cccs2)CN1c1ccc(F)cc1", "note": "(configuration not stated)", "Potency": "inconclusive: 0.184 µM [activator, full curve, poor fit]"}, {"smiles": "O=C1NCC(O)=C1C=NC12CC3CC(CC(C3)C1)C2", "Potency": "inactive and inconclusive: 14.6 µM [activator, partial curve]"}, {"smiles": "CC(=O)n1cc([C@H]2C=C(C(=O)Nc3ccccc3)O[C@@H](OCc3ccc(CO)cc3)C2)c2ccccc21", "re-replication activation": "inactive: 16.5% [at 9.22 µM]"}, {"smiles": "CCN(CC)c1ccc(/C=C(\\C#N)C(=O)NCc2ccccc2)cc1", "Potency": "inconclusive: 8.2 µM [activator, partial curve, poor fit]"}, {"smiles": "O=C(NC(=S)Nc1ccccc1N1CCCC1)c1cccc(F)c1", "Potency": "inactive"}, {"smiles": "COc1ccc(C[C@H](N)C(=O)N[C@H]2[C@@H](O)[C@H](n3cnc4c(N(C)C)ncnc43)O[C@@H]2CO)cc1", "Potency": "inconclusive: 0.651 µM [activator, full curve, poor fit]"}, {"smiles": "O=C(c1ncn[nH]1)N1CCN(c2nc(-c3ccccc3)cs2)CC1", "Potency": "inconclusive: 6.51 µM [activator, single point]"}, {"smiles": "Cc1nnc(SC(C)C(=O)Nc2ccc(Cl)cc2Cl)[nH]c1=O", "note": "(configuration not stated)", "Potency": "inconclusive: 0.326 µM [activator, full curve]"}, {"smiles": "O=C(c1ccccc1)N(Cc1cccnc1)C1(C(=O)Nc2ccccc2)CCCCC1", "Potency": "inconclusive: 1.16 µM [activator, partial curve, poor fit]"}]}]}
